PubChem BioAssay AID1259308, NCATS, 2017

Screen: 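Genes whose loss raises luciferase production in HEK293 cells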 (primary screen)
Cells: human HEK293 embryonic kidney cells stably expressing firefly luciferase (HEK-CMV-Luc2-Hygro)
Reagent: single siRNA against human genes, 0.8 pmol siRNA per well
Time to read-out: 72 h
Measured: 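Luciferase light (ONE-Glo) measured on one replicate plate set and viability (CellTiter-Glo) on the other, scaled to a negative control siRNA, with robust z-scores and luciferase per cell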
Direction: total luciferase, z-score: higher = more reporter protein produced
Hit rule: 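An siRNA counts as active if its total luciferase robust z-score exceeds 3; genes with two or more such siRNAs out of three were retested with fresh siRNAs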
Meaning of the calls: active = raised luciferase; inactive = no rise
Shown is a random part of about 59,000 reagents. Of all reagents, about 1,510 (2.6%) got an active call. 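Calls use total luciferase alone and ignore viability, so some active siRNAs may act by altering cell number.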 Reagents against one gene are numbered here. Not all columns of the deposit are shown.

What is on record for AIDA #1?
total luciferase, z-score: -0.576; Call: inactive

For AIDA #2, what was measured?
total luciferase, z-score: 0.699; Call: inactive

With AIDA #3, how do the results read?
total luciferase, z-score: -0.232; Call: inactive

With TNNI1 #1, what was measured?
total luciferase, z-score: 1.23; Call: inactive

For TNNI1 #2, what does the deposit list?
total luciferase, z-score: -0.582; Call: inactive

With TNNI1 #3, how do the results read?
total luciferase, z-score: -0.342; Call: inactive

What did the screen give for KRT10 #1?
total luciferase, z-score: 0.121; Call: inactive

For KRT10 #2, what was measured?
total luciferase, z-score: -0.866; Call: inactive

With KRT10 #3, what does the deposit list?
total luciferase, z-score: 0.689; Call: inactive

For FHL1 #1, what does the deposit list?
total luciferase, z-score: 1.1; Call: inactive

Which result is listed for FHL1 #2?
total luciferase, z-score: -1.55; Call: inactive

With FHL1 #3, how do the results read?
total luciferase, z-score: 1.36; Call: inactive

For LOC105372990 #1, what does the deposit list?
total luciferase, z-score: -1.01; Call: inactive

For LOC105372990 #2, what was measured?
total luciferase, z-score: 0.129; Call: inactive

What is on record for LOC105372990 #3?
total luciferase, z-score: 0.246; Call: inactive

Which result is listed for ING2 #1?
total luciferase, z-score: -1.72; Call: inactive

Which result is listed for ING2 #2?
total luciferase, z-score: 0.354; Call: inactive

Which result is listed for ING2 #3?
total luciferase, z-score: -1.4; Call: inactive

With THAP9 #1, what was measured?
total luciferase, z-score: -0.484; Call: inactive

With THAP9 #2, what was measured?
total luciferase, z-score: 1.97; Call: inactive

What did the screen give for THAP9 #3?
total luciferase, z-score: -0.913; Call: inactive

What is on record for FBXO27 #1?
total luciferase, z-score: -1.7; Call: inactive

With FBXO27 #2, what was measured?
total luciferase, z-score: -0.00927; Call: inactive

What is on record for FBXO27 #3?
total luciferase, z-score: 1.98; Call: inactive

What is on record for PHYHIP #1?
total luciferase, z-score: 0.563; Call: inactive

With PHYHIP #2, what was measured?
total luciferase, z-score: -1.96; Call: inactive

For PHYHIP #3, what was measured?
total luciferase, z-score: -1.63; Call: inactive

With CYTH1 #1, what was measured?
total luciferase, z-score: -0.186; Call: inactive

For CYTH1 #2, what does the deposit list?
total luciferase, z-score: 1.11; Call: inactive

For CYTH1 #3, how do the results read?
total luciferase, z-score: 0.821; Call: inactive

With GRXCR1 #1, how do the results read?
total luciferase, z-score: 1.53; Call: inactive

How did the screen score GRXCR1 #2?
total luciferase, z-score: -0.841; Call: inactive

What did the screen give for GRXCR1 #3?
total luciferase, z-score: -3.26; Call: inactive

Part of the list above, set out differently.
{"gene knocked down":"FBXO27","reagent":1,"total luciferase, z-score":-1.7,"Call":"inactive"}
{"gene knocked down":"FBXO27","reagent":2,"total luciferase, z-score":-0.00927,"Call":"inactive"}
{"gene knocked down":"FBXO27","reagent":3,"total luciferase, z-score":1.98,"Call":"inactive"}
{"gene knocked down":"PHYHIP","reagent":1,"total luciferase, z-score":0.563,"Call":"inactive"}
{"gene knocked down":"PHYHIP","reagent":2,"total luciferase, z-score":-1.96,"Call":"inactive"}
